# PubChem BioAssay AID298 (DTP/NCI, 2004)
# The list is a part of this screen's results and no random one: it is rich in T/C values a quarter to a half above the control, in often repeated tests (any T/C) and in doses without a T/C. Further doses and runs are listed elsewhere. T/C gives the treated animals as a percentage of the vehicle group. Schedules are NCI's codes, read here as Q, the interval in days (D) or hours (H), X, the number of doses. Some T/C values are followed by the survivors on the day toxicity was checked, most often the fifth; where none is given, no animal had died by that day. Some entries were tested several times; the values are given in rising order. Some entries give survivors of the animals treated and no T/C: the source holds a T/C of zero for them, seemingly a mark for toxic or unscored doses. Survivors were counted at the toxicity check, usually on the fifth day, unless a day is given; later deaths do not show.
# Test system: MX-1 breast xenograft, intrarenal, nude mice, tumor weight
# Experiment: NCI In Vivo Anticancer Drug Screen. Data for tumor model Human Mammary Carcinoma MX-1 Xenograft (intrarenal inoculation) in NU/NU BALB/C (nude) mice
# Conditions: T/C endpoint: mean tumor weight change, higher T/C = larger tumour; for T/C: evaluated on day 11
# Protocol: The antitumor activity of compounds was measured in mice bearing transplantable tumors. Survival or tumor size were measured and the results are expressed as the measurement made in the treated group (T) divided by the measurement made in the vehicle treated control group (C). The tumor model used in this assay is Human Mammary Carcinoma MX-1 Xenograft (intrarenal inoculation) in NU/NU BALB/C (nude) mice
# [1] = dose: 300.0 mg/kg/injection, schedule: Q04DX003 (ip), vehicle: saline with Tween-80
# [2] = dose: 600.0 mg/kg/injection, schedule: Q04DX003 (ip), vehicle: saline with Tween-80
# [3] = dose: 600.0 mg/kg/injection, schedule: Q04DX003 (ip), vehicle: saline
# [4] = dose: 1200.0 mg/kg/injection, schedule: Q04DX003 (ip), vehicle: saline
# [5] = dose: 1200.0 mg/kg/injection, schedule: Q04DX003 (ip), vehicle: saline with Tween-80
# [6] = dose: 1200.0 mg/kg/injection, schedule: Q04DX003 (sc), vehicle: saline with Tween-80
# [7] = dose: 240.0 mg/kg/injection, schedule: Q04DX003 (ip), vehicle: saline with Tween-80
compound,measurement,setting,value
COC12[C@@H]3N[C@@H]3CN1C1=C(C(=O)C(NCCSSCCNC3=C(C)C(=O)C4=C(C3=O)C(COC(N)=O)[C@]3(OC)C5N[C@@H]5CN43)=C(C)C1=O)[C@@H]2COC(N)=O (stereo partly specified),survivor count,"dose: 12.5 mg/kg/injection, schedule: Q04DX003 (ip), vehicle: DMSO",3 of 6 on day 11
same,survivor count,"dose: 25.0 mg/kg/injection, schedule: Q04DX003 (ip), vehicle: DMSO",1 of 6 on day 11
C/C(=N\NC(=S)N1CC2CCC(CC2)C1)c1cccc(C)n1,survivor count,"dose: 100.0 mg/kg/injection, schedule: Q04DX003 (ip), vehicle: saline with Tween-80",3 of 6 on day 11
CC1=C[P+](c2ccccc2)(c2ccccc2)C=C(c2ccccc2)O1,T/C,"dose: 1.5 mg/kg/injection, schedule: Q04DX003 (ip), vehicle: saline",147 % of control
same,T/C,"dose: 3.0 mg/kg/injection, schedule: Q04DX003 (ip), vehicle: saline",138 % of control
same,survivor count,"dose: 6.0 mg/kg/injection, schedule: Q04DX003 (ip), vehicle: saline",1 of 6 on day 11
same,survivor count,"dose: 12.5 mg/kg/injection, schedule: Q04DX003 (ip), vehicle: saline",0 of 6 on day 11
same,survivor count,"dose: 25.0 mg/kg/injection, schedule: Q04DX003 (ip), vehicle: saline",0 of 6 on day 11
same,survivor count,"dose: 50.0 mg/kg/injection, schedule: Q04DX003 (ip), vehicle: saline",0 of 6 on day 11
same,survivor count,"dose: 100.0 mg/kg/injection, schedule: Q04DX003 (ip), vehicle: saline",0 of 6 on day 11
N#CC(C#N)=C/C=C/c1cccc([N+](=O)[O-])c1,T/C,"dose: 100.0 mg/kg/injection, schedule: Q01DX010 (sc), vehicle: Klucel (hydroxypropylcellulose) (HPC)",129 % of control
same,T/C,"dose: 800.0 mg/kg/injection, schedule: Q01DX010 (sc), vehicle: Klucel (hydroxypropylcellulose) (HPC)",131 % of control
O=C1C2CC(Cl)C(SSC3CC4C(=O)N(SC(Cl)(Cl)C(Cl)Cl)C(=O)C4CC3Cl)CC2C(=O)N1SC(Cl)(Cl)C(Cl)Cl (stereo unspecified),survivor count,[1],0 of 6 on day 11
same,survivor count,[2],0 of 6 on day 11
NC(=O)C1C=CN(Cc2ccccc2)C=C1,survivor count,"dose: 400.0 mg/kg/injection, schedule: Q04DX003 (ip), vehicle: saline with Tween-80",0 of 6 on day 11
same,survivor count,"dose: 800.0 mg/kg/injection, schedule: Q04DX003 (ip), vehicle: saline with Tween-80",0 of 6 on day 11
COc1cc2cc3c(c(O)c2c(O)c1/C=C/C(C)C)C(=O)CC(C)(OC(C)=O)C3 (stereo unspecified),survivor count,"dose: 40.0 mg/kg/injection, schedule: Q04DX003 (ip), vehicle: Klucel (hydroxypropylcellulose) (HPC)",0 of 6 on day 11
CS(=O)(=O)CS(=O)(=O)OCCCl,survivor count,"dose: 300.0 mg/kg/injection, schedule: Q04DX003 (sc), vehicle: suspension in saline",0 of 6 on day 11
same,survivor count,"dose: 461.11 mg/kg/injection, schedule: Q04DX003 (ip), vehicle: dextrose",3 of 6 on day 11
same,survivor count,"dose: 461.11 mg/kg/injection, schedule: Q04DX003 (ip), vehicle: other",3 of 6 on day 11
Cn1nnc2c(C(N)=O)ncn2c1=O,survivor count,[3],0 of 6 on day 11
same,survivor count,"dose: 600.0 mg/kg/injection, schedule: Q04DX003 (ip), vehicle: suspension in saline",0 of 6 on day 11
same,survivor count,[4],0 of 6 on day 11
COc1ccc2c(c1)CCn1c(C)c(COC(=O)NC(C)C)c(COC(=O)NC(C)C)c1-2,survivor count,"dose: 150.0 mg/kg/injection, schedule: Q04DX003 (ip), vehicle: distilled water + Tween-80",1 of 6 on day 11
same,survivor count,"dose: 300.0 mg/kg/injection, schedule: Q04DX003 (ip), vehicle: distilled water + Tween-80",0 of 6 on day 11
same,survivor count,"dose: 600.0 mg/kg/injection, schedule: Q04DX003 (ip), vehicle: distilled water + Tween-80",0 of 6 on day 11
CNc1ncn(-c2c(C)cccc2C)c(=O)n1,survivor count,[1],3 of 5 on day 11
same,survivor count,[2],3 of 5 on day 11
same,survivor count,[5],2 of 6 on day 11
CCOC(=O)C1=C(Nc2ccc(OC)cc2)C(N)=NC1=N,survivor count,"dose: 1200.0 mg/kg/injection, schedule: Q04DX003 (ip), vehicle: suspension in saline",1 of 6 on day 11
O=C(Oc1ccccc1)c1cc(O)c(O)c(O)c1,survivor count,[3],1 of 6 on day 11
same,survivor count,[4],0 of 6 on day 11
Cc1noc2nc(-c3ccccc3)cc(N3CCN(C)CC3)c12,survivor count,"dose: 600.0 mg/kg/injection, schedule: Q04DX003 (ip), vehicle: other",1 of 6 on day 11
Clc1ccccc1C(Nc1cnccn1)Nc1cnccn1,survivor count,[5],2 of 6 on day 11 and 3 of 6 on day 11
CC(=O)ON(C(C)=O)c1ccc(C(N)=O)cc1,T/C,"dose: 300.0 mg/kg/injection, schedule: Q04DX003 (sc), vehicle: saline with Tween-80",132 % of control
same,survivor count,[6],3 of 5 on day 11
O=C1CCC(=O)N1CO,survivor count,"dose: 1200.0 mg/kg/injection, schedule: Q04DX003 (sc), vehicle: saline",2 of 6 on day 11
same,survivor count,"dose: 2400.0 mg/kg/injection, schedule: Q04DX003 (sc), vehicle: saline",0 of 6 on day 11
Cc1ccc(/C=C/C(=O)/C=C/c2ccc(C)o2)o1,T/C,"dose: 400.0 mg/kg/injection, schedule: Q04DX003 (ip), vehicle: DMSO",146 % of control
COc1cccc(Sc2ccc([N+](=O)[O-])c3no[n+]([O-])c23)c1,T/C,"dose: 30.0 mg/kg/injection, schedule: Q04DX003 (ip), vehicle: saline with Tween-80",126 % of control [5 of 6 alive on day 11]
same,T/C,"dose: 60.0 mg/kg/injection, schedule: Q04DX003 (ip), vehicle: saline with Tween-80","23, 53, 63 [5 of 6 alive on day 11], 89, 108 % of control"
same,T/C,"dose: 120.0 mg/kg/injection, schedule: Q04DX003 (ip), vehicle: saline with Tween-80","7, 47, 79, 105 % of control"
same,T/C,[7],"4, 58, 75 % of control [4 of 6 alive on day 11]"
same,survivor count,[7],3 of 5 on day 11
same,survivor count,"dose: 960.0 mg/kg/injection, schedule: Q04DX003 (ip), vehicle: saline with Tween-80",3 of 6 on day 11
NCCCN=c1ccc2c3c1c(O)c1c(O)ccc(=O)c1c3[nH]n2CCNCCO,survivor count,"dose: 75.0 mg/kg/injection, schedule: Q04DX003 (ip), vehicle: water",0 of 6 on day 11
same,survivor count,"dose: 150.0 mg/kg/injection, schedule: Q04DX003 (ip), vehicle: water",0 of 6 on day 11
CN(C)c1ccc2c(Nc3ccc(NS(C)(=O)=O)cc3)c3ccc(N(C)C)cc3nc2c1,survivor count,"dose: 400.0 mg/kg/injection, schedule: Q04DX003 (ip), vehicle: Klucel (hydroxypropylcellulose) (HPC)",3 of 6 on day 11
same,survivor count,"dose: 800.0 mg/kg/injection, schedule: Q04DX003 (ip), vehicle: Klucel (hydroxypropylcellulose) (HPC)",0 of 6 on day 11
COc1ccc2c(c1)-c1nn(CCCN(C)C)c3ccc([N+](=O)[O-])c(c13)N2,survivor count,"dose: 100.0 mg/kg/injection, schedule: Q04DX003 (ip), vehicle: water",1 of 6 on day 11 and 2 of 6 on day 11
same,survivor count,"dose: 200.0 mg/kg/injection, schedule: Q04DX003 (ip), vehicle: water",0 of 6 on day 11
Nc1ccc(S(=O)(=O)Nc2cnc3c(Cl)cccc3n2)cc1,survivor count,"dose: 1200.0 mg/kg/injection, schedule: Q04DX003 (ip), vehicle: DMSO",3 of 6 on day 11
COC(=O)Nc1nc2ccc(C3(c4ccc(F)cc4)OCCO3)cc2[nH]1,T/C,[6],143 % of control
CCC(NC(N)=O)C(CC)NC(N)=O (stereo unspecified),survivor count,"dose: 50.0 mg/kg/injection, schedule: Q04DX003 (ip), vehicle: saline with Tween-80",3 of 6 on day 11
CN(C)C1C(=O)C(C(=O)NP(=O)(NCCCO)N(CCCl)CCCl)=C(O)C2(O)C(=O)C3=C(O)c4c(O)cccc4C(C)(O)C3CC12 (stereo unspecified),survivor count,"dose: 600.0 mg/kg/injection, schedule: Q04DX003 (sc), vehicle: saline with Tween-80",0 of 6 on day 11
same,survivor count,[6],0 of 6 on day 11 and 1 of 6 on day 11
